# US4937235A, “3- or 4-substituted oxotremorine derivatives” (American Cyanamid Company, priority 1989, dated 1990)
# pIC50: −log10 of the molar value. For at least one compound, name, drawing or mass did not settle the structure.
# What was measured:
# [1] = molecular target: muscarinic cholinergic receptor; assay: [3H] Quinuclidinyl Benzilate (3H-QNB) Binding Assay; parameters: species or system rat; conditions: pH 7.4
# [2] = molecular target: muscarinic cholinergic receptor; assay: [3H]-Cis-methyldioxolane (3H-CD) Binding Assay (High Affinity); conditions: rat cerebral cortex, 1.0 nM 3H-CD, 25° C., 120 minutes, pH 7.4
smiles,measurement,setting,value
"C[N+](C)(C)CC#CCN1CC[C@H](O)C1=O [(S)-4-(3-Hydroxy-2-oxo-1-pyrrolidinyl)-N,N,N-trimethyl-2-butyn-1-aminium]",pIC50,[1],4.14
same,pIC50,[2],7.85
